No constants are given. Whether binding was seen depends on the method and setting. Binding calls can cover weak binding; strength is not graded here. For some of these results: Sequences can lack the tags named with a protein. For some of these results: In cells and extracts the contact can be indirect.
How the values were obtained:
[1] = target: Pst_12806 without signal peptide, Gal4 binding domain fusion (pGBKT7-Pst_12806) (Puccinia striiformis f. sp. tritici); experiment: two-hybrid; GAL4 system, pairwise; pGBKT7-Pst_12806 (without signal peptide) with pGADT7 preys in yeast AH109; growth on SD-LWH or SD-LWHA and LacZ activity with X-α-gal
[2] = target: Pst_12806 without signal peptide, Gal4 binding domain fusion (pGBKT7-Pst_12806) (Puccinia striiformis f. sp. tritici); experiment: two-hybrid; Matchmaker GAL4 system; Pst_12806 as bait against a cDNA library of Pst-infected wheat leaves; six chloroplast-related hits tested again with Pst_12806 (method of the re-test not named)
[3] = target: Pst_12806-cEYFP (Puccinia striiformis f. sp. tritici); experiment: split reporter; BiFC with nEYFP and cEYFP halves (pSATN vectors), agroinfiltrated N. benthamiana leaves, OD600 0.5, confocal microscopy two days after inoculation
[4] = target: Pst_12806:GFP (pCAMBIA1302) (Puccinia striiformis f. sp. tritici); experiment: co-IP; Pst_12806:GFP, TaISP:HA and P19 co-expressed in N. benthamiana; leaf extract on magnetic beads with anti-GFP, 4 °C 4 h; blots with anti-GFP and anti-HA

B1: TaISP, Gal4 activation domain fusion (pGADT7-TaISP) (protein, UniProt Q7X9A6 1-222)
chain: MASTALSTASNPTQLCRTRASSLCKPVKGLGFGRERIPRNITCMAGSISADRVPDMSKRELMNLLLLGAISLPTFGMLVPYGSFLVPAGSGSNAGGVAAKDKLGNDILVEDWLKTHGPNDRTLAQGLKGDPTYLVVESDKTLATYGINAVCTHLGCVVPWNAAENKFLCPCHGSQYNNQGKVVRGPAPLSLALVHADVDDGKVVFVPWVETDFRTGDNPWWK
With B1 the binding [1] was “binds” and the binding [2] was “binds”.

B2: TaISP-nEYFP (protein, UniProt Q7X9A6 50-222)
chain: ADRVPDMSKRELMNLLLLGAISLPTFGMLVPYGSFLVPAGSGSNAGGVAAKDKLGNDILVEDWLKTHGPNDRTLAQGLKGDPTYLVVESDKTLATYGINAVCTHLGCVVPWNAAENKFLCPCHGSQYNNQGKVVRGPAPLSLALVHADVDDGKVVFVPWVETDFRTGDNPWWK
In the case of B2, the binding [3] is reported as “binds”.

B3: TaISP:HA (pICH86988) (protein, UniProt Q7X9A6 50-222)
chain: B2 chain
In the case of B3, the binding [4] is reported as “binds”.
